Assay results published in article PMC8453168.
These are yes or no findings as the source states them, for the method shown. Binding seen in cells or lysates may run through a third protein. Some binding calls cover weakened binding; strength is not graded here.

Target: T1, PTPRN (tyrosine phosphatase receptor type N), in U87 cells (human) (UniProt Q16849)
T1 sequence: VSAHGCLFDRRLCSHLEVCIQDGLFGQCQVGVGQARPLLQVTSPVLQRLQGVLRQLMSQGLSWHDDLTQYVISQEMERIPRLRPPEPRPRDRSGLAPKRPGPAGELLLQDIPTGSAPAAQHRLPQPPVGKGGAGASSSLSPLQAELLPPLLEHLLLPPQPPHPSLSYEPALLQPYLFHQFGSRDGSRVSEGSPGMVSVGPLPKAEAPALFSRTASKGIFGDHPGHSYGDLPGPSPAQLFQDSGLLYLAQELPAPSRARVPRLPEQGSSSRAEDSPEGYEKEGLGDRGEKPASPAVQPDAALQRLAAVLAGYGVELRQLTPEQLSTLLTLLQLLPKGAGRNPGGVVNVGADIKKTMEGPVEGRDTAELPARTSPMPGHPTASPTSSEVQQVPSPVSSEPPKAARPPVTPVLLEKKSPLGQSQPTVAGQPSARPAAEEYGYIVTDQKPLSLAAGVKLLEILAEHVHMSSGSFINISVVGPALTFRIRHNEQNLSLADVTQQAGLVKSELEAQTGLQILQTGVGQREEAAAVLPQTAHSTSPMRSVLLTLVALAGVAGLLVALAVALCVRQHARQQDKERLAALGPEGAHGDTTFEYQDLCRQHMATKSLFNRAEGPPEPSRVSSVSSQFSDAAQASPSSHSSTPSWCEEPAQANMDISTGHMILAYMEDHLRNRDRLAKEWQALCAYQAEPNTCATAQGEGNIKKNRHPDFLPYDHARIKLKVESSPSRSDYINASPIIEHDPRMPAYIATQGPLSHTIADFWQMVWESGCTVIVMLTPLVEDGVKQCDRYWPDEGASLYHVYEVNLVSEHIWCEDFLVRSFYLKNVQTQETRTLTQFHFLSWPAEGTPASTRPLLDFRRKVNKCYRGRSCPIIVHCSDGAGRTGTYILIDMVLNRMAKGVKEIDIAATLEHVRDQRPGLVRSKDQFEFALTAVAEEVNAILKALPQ
Assay: co-IP; immunoprecipitation (anti-FLAG) from lysate of transfected U87 cells (20 mM Tris-HCl pH 8, 137 mM NaCl, 0.5% Triton X-100, 2 mM EDTA, 4°C), western blot

- binding: binds
Substance: Heat shock protein 90 alpha family class A member 1 (HSP90AA1), endogenous in U87 cells (from UniProt P07900 1-732)
